Patent publication US20190203273

Tested on: Nb.BsrDI nicking endonuclease
Experiment: enzyme reaction in vitro
Details: T15 carries Atto 594, T28 carries BHQ-2; 5' phosphate on oligonucleotide 5; iterated nicking of oligonucleotide 4 at 56 C releases Atto 594 fluorescence; Mg acetate, K acetate, pH 7.9; no significant signal without dNTPs; purified recombinant protein; protein details: New England Biolabs; label: Atto 594/BHQ-2

## TTCATCAGTATACTTGCTAACATTGCATAGGTTCACGATA / GTTAGCAAGA
  activity on this sequence: active

The exact form of at least one protein or probe is not confirmed.
